# Assay results as given in US20040253247A1.
# Target: casein
# Test: phage ELISA, photograph of the plate
row,Binder,binding
1,MELWCDSTLMAYDLCGDFNM [BA-B39],no binding
2,GENWCDWVLLAYDLCGEDNT [BA-B37],no binding
3,HSQMEDICLPRWGCLWGDEL [RB-B8],no binding
4,GEDWCDSTLLAFDLCGEGAR [BA-B44],no binding
5,EVRSFCTDWPAHYSCTSLQG [HA-H74],no binding
6,DSEVCYFPGICWSGT [HBC-H1],no binding

# Further lines, results first:
row,binding,Binder
1,no binding,EEDLCLPVWGCLWGA [RBC-R14]
2,no binding,DTCADLVRLGLECWA [RD-R2]
3,no binding,QRHPEDICLPRWGCLWGDDD [RB-H1]
4,no binding,QGLIGDICLPRWGCLWGDSV [RB-R8]

# Target: albumin (species not stated, D3H44 fusion assays)
# Test: SA08b competition binding assay (competitor: biotinylated SA08b), albumin species not given
row,binding,Binder
1,binds,"QGLIGDICLPRWGCLWGDSVK (N-terminus printed as Ac-, C-terminus printed as -n) [SA08]"

# No constants are given. Whether binding was seen depends on the method and setting. For some assays here: A result given as binding can be weak or reduced; the word gives no strength. For some assays here: Where a sequence is shown, tags or fusion partners need not be part of it.
